Results are given in words; binding and its absence hold for the method and conditions named. For some assays here: Where a sequence is shown, tags or fusion partners need not be part of it.
Assays:
[1] = target: T1, GST-tagged AcsA (Bacillus subtilis) (Bacillus subtilis) (UniProt P39062); experiment: pull-down; 200 μg GST-tagged protein immobilised on GST-Sepharose beads in spin columns, 200 μg partner added in SEC buffer (20 mM HEPES-Na pH 7.5, 200 mM NaCl, 20 mM KCl, 20 mM MgCl2), 30 min, three washes, elution with 20 mM GSH, Coomassie-stained SDS-PAGE; without Ac-CoA (also with 1 mM ATP, 1 mM AMP or 130 μM CoA, or with AcuB and AcuC added); both purified
T1 sequence: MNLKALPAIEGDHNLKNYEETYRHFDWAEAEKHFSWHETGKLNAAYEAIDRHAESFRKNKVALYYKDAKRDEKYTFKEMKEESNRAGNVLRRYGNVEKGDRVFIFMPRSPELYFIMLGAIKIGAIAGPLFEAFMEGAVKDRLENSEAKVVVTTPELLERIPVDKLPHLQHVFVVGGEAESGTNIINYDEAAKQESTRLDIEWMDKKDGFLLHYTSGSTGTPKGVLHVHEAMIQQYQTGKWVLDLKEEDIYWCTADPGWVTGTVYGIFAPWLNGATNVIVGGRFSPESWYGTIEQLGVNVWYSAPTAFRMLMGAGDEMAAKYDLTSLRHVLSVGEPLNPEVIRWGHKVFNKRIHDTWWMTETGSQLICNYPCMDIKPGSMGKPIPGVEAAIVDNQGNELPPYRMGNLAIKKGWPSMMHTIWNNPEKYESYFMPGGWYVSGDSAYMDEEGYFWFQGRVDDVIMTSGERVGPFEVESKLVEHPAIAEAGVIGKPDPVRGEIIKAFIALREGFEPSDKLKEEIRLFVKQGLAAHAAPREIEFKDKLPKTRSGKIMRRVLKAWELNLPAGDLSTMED

[2] = target: T2, GST-tagged AcuA (Bacillus subtilis) (Bacillus subtilis) (UniProt P39065); experiment: pull-down; GST-AcuA immobilised on GST-Sepharose beads, AcsA as prey, with 130 μM Ac-CoA; Coomassie-stained SDS-PAGE; both purified
T2 sequence: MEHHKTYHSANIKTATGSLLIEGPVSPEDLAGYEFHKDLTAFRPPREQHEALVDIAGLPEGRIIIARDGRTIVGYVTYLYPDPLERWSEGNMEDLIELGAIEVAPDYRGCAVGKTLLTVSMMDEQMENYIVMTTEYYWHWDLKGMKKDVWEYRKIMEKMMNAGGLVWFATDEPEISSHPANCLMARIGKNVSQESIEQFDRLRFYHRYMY

[3] = target: T3, Acetyl-CoA synthetase AcsA (Bacillus subtilis) (Bacillus subtilis) (UniProt P39062); experiment: condition: only with 200-1000 μM acetate, 500 μM ATP and 500 μM CoA, 60 min; mass photometry; AcsA and AcuA incubated with 500 μM ATP, 500 μM CoA and 0.02-5 mM acetate for 60 min, then mass photometry; both purified
T3 sequence: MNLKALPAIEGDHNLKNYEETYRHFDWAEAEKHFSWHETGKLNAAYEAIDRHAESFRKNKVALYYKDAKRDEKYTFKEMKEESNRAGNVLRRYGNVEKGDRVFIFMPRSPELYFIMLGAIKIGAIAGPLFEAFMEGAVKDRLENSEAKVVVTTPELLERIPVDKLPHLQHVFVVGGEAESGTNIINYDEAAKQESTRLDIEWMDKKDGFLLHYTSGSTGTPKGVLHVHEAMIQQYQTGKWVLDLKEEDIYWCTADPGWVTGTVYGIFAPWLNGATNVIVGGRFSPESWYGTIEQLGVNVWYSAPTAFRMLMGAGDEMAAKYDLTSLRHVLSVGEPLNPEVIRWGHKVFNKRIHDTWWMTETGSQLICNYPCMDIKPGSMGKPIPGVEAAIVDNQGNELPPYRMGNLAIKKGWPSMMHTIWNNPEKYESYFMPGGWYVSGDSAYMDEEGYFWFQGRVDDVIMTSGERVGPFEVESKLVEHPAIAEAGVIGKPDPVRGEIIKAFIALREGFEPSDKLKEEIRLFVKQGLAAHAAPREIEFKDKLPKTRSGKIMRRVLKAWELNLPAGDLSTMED

[4] = target: GCN5-related N-acetyltransferase AcuA (Bacillus subtilis) (Bacillus subtilis) (UniProt P39065); experiment: mass photometry; TwoMP mass photometer, SEC buffer, 37.5 nM final protein concentration; proteins alone or 37.5 nM AcsA with 37.5 nM AcuA; both purified

B1: AcuB (Bacillus subtilis) (protein, UniProt P39066 1-214)
chain: MIVEQIMKRDVITLTKTDTLETAICKLKEFHIRHLPVVDEERHVIGMITDRDMKQASPSIFEENKRSLFLTRSVDSIMKKDVVCAHPLDFVEEISAVFYEHGIGCLPVVHHQKLIGILTKTDLLRTFVKLTGADQPGSQIEIKVNDITKSLAEISSLCQDLQVKILSVLVYPHDDPGVKVLVFRVKTMNPLPFLQALQRNGHHVVWPSEQRDLL
[1]
  binding: no binding

B2: AcuC, histone-deacetylase (HDAC)-type deacetylase (Bacillus subtilis) (enzyme, UniProt P39067 1-387)
chain: MRDSVFIYSPSYQTYMFHQEHPFNQQRVLLTYDLLKTINAFDDGDIVTPRLASEEELSLVHTDDYIQAVKLAGAGKLPAEEGESYGLGTEDTPVFAGMHEAASLLVGGTLTAADWVMSGQALHAANLGGGLHHGFRGRASGFCIYNDSAVAIQYIQKKYSARVLYIDTDAHHGDGVQFTFYDNPDVCTLSIHETGRYLFPGTGQIQEKGSGKGYGYSFNIPLDAFTEDDSFLEAYRTAASEVAAYFEPDVIISQNGADAHYYDPLTHLSATINIYEEIPRLAHTLAHQYCGGKWIAVGGGGYDIWRVVPRAWARIWLEMKGIDPGHEIPPEWIVKWQKQCPVALPSSWSDPADLYPPIPRKPEITEKNAQTVSKALYAIRSEQQRTK
[1]
  binding: no binding

B3: Acetyl-CoA synthetase AcsA (Bacillus subtilis) (enzyme)
chain: MNLKALPAIEGDHNLKNYEETYRHFDWAEAEKHFSWHETGKLNAAYEAIDRHAESFRKNKVALYYKDAKRDEKYTFKEMKEESNRAGNVLRRYGNVEKGDRVFIFMPRSPELYFIMLGAIKIGAIAGPLFEAFMEGAVKDRLENSEAKVVVTTPELLERIPVDKLPHLQHVFVVGGEAESGTNIINYDEAAKQESTRLDIEWMDKKDGFLLHYTSGSTGTPKGVLHVHEAMIQQYQTGKWVLDLKEEDIYWCTADPGWVTGTVYGIFAPWLNGATNVIVGGRFSPESWYGTIEQLGVNVWYSAPTAFRMLMGAGDEMAAKYDLTSLRHVLSVGEPLNPEVIRWGHKVFNKRIHDTWWMTETGSQLICNYPCMDIKPGSMGKPIPGVEAAIVDNQGNELPPYRMGNLAIKKGWPSMMHTIWNNPEKYESYFMPGGWYVSGDSAYMDEEGYFWFQGRVDDVIMTSGERVGPFEVESKLVEHPAIAEAGVIGKPDPVRGEIIKAFIALREGFEPSDKLKEEIRLFVKQGLAAHAAPREIEFKDKLPKTRSGKIMRRVLKAWELNLPAGDLSTMED
notes: AcsA, acetyl-CoA synthetase of Bacillus subtilis; gene amplified from genomic DNA of strain 3610; catalytic lysine K549; the gene came from strain 3610; Monomer and dimer seen by mass photometry; also called Ac-CoA synthetase; source: E. coli BL21(DE3), purified (HisTrap, SEC)
[2]
  binding: no binding (condition: with 130 μM Ac-CoA)

B4: GCN5-related N-acetyltransferase AcuA (Bacillus subtilis) (enzyme)
chain: MEHHKTYHSANIKTATGSLLIEGPVSPEDLAGYEFHKDLTAFRPPREQHEALVDIAGLPEGRIIIARDGRTIVGYVTYLYPDPLERWSEGNMEDLIELGAIEVAPDYRGCAVGKTLLTVSMMDEQMENYIVMTTEYYWHWDLKGMKKDVWEYRKIMEKMMNAGGLVWFATDEPEISSHPANCLMARIGKNVSQESIEQFDRLRFYHRYMY
[3]
  binding: no binding
[4]
  binding: no binding (tested: 37 nM)
